Reference: patent US20110313021A1, “Method to rapidly identify critical p53 target genes that can be utilized for therapeutic intervention” (priority 2010, published 2011)
At least one structure is not confirmed: it was looked up by name or label, or the drawing left a doubt.

Experiments:
[1] = target: T1, MCAK (Homo sapiens, UniProt Q99661); assay: in vitro MT stabilization assay (MCAK depolymerization of paclitaxel-stabilized MTs); assay type: biochemical
T1 sequence (Q99661 1-725): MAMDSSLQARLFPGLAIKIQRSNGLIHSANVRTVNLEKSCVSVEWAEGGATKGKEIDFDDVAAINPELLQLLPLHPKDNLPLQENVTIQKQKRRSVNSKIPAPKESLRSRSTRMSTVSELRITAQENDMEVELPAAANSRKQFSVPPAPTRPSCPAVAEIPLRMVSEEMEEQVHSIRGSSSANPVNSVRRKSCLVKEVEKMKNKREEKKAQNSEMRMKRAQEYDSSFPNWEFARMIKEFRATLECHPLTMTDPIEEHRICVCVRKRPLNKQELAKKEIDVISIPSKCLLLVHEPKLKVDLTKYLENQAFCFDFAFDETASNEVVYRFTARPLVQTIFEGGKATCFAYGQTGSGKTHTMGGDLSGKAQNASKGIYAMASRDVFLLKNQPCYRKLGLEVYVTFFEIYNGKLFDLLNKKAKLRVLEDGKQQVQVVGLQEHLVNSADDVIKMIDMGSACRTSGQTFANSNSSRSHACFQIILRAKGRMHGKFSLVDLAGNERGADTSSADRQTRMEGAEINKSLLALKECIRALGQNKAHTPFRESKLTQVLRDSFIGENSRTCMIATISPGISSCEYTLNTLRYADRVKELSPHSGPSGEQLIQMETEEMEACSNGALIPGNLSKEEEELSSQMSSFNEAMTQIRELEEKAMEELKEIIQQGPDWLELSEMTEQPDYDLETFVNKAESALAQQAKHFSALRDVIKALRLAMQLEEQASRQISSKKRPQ

[2] = system: p53 null MEFs; assay: cell survival of WT and p53 null MEFs treated with gossypol; assay type: cell-based, murine; details: p53 null MEFs compared with WT MEFs; various doses

## Cc1cc2c(C(C)C)c(O)c(O)c(C=O)c2c(O)c1-c1c(C)cc2c(C(C)C)c(O)c(O)c(C=O)c2c1O [gossypol]
[1]; gossypol added with MCAK, paclitaxel-stabilized MTs
  ability of MCAK to depolymerize MTs: inhibited the ability of MCAK to depolymerize MTs
[1]; gossypol alone, without MCAK
  MT lengths: did not affect the MT lengths
[2]
  sensitivity of cell survival to gossypol: more sensitive to gossypol than WT MEFs
